Results from PubChem BioAssay AID588497 (NMMLSC, 2011).
Out of some 360,000 compounds screened, about 780 (0.22%) were called active. Inconclusive results, whose numbers are uncertain, are shown with a selection of clear calls. No stated cut-off is given here; in the data, active means inhibition above about 35% (passing the limit was not always enough); inconclusive means no clear call, values can overlap the other calls. Where a SMILES comes first, the peptide text is derived from it.

System: Botulinum neurotoxin type F light chain protease (Clostridium botulinum)
Test: BoNT/F light chain protease inhibitors, primary screen, biochemical, flow cytometry, MLPCN library (AID 588497); further: plate controls were buffer without enzyme for full effect and enzyme alone for no effect
Conditions: Multiplex microsphere protease cleavage assay, at 10 µM, active compounds read high

Structure (SMILES) | inhibition
O=C(CCC1CCN(C(=O)CC2=CCCCC2)CC1)NCc1ccc(F)cc1 | inactive: -2.5%
CN1CCC(OC(=O)c2cc3cc(Br)ccc3oc2=O)CC1 | inconclusive: 19.8%
Cc1ccc(S(=O)(=O)N(CC(=O)NC2CC2)c2ccc(C)c(Cl)c2)cc1 | inactive: -4.4%
CCCN(CC(=O)Nc1ccccc1OC)C(=O)c1nc2nc(C)ccn2n1 | inconclusive: -4.1%
CCCNC(=O)C1(C)CCCN(C(=O)c2cc(C)n(C(C)(C)C)n2)C1 (stereo unspecified) | inactive: -7.7%
COC(=O)C1CCN(C(=O)c2cc3c(=O)n4cccc(C)c4nc3n2Cc2ccccc2)CC1 | inconclusive: -109%
CCOc1cccc2sc(=NC(=O)c3ccco3)n(CC(=O)OC)c12 | inactive: -0.8%
N#Cc1nccnc1N1CCN(C(=O)Nc2ccccc2)CC1 | inconclusive: -195%
CCN(C(=O)CCCCC(=O)N(CC)c1ccccc1)c1ccccc1 | inconclusive: 4.4%
Cc1n[nH]c(C)c1Cc1c(F)cccc1Cl | inconclusive: -28.6%
Fc1ccc(CNc2ncnc3c2cnn3-c2ccccc2)cc1 | inconclusive: 9.1%
O=C(Cc1ccc(Cl)cc1)Nc1ccc(S(=O)(=O)Nc2ncccn2)cc1 | inconclusive: -6.5%
CCOC(=O)C(=CNNc1ccccc1)C(=O)OCC | inconclusive: 17.9%
CCOC(=O)CNC(=O)Cn1cnc2c(cnn2-c2ccc(C)cc2)c1=O | inconclusive: 28.8%
Cc1cc(-c2n[nH]c(=S)n2/N=C/C=C/c2ccco2)n[nH]1 | inconclusive: -15.9%
NC(=O)c1cnn2c(-c3cccc(C(F)(F)F)c3)ccnc12 | inconclusive: 1.5%
Cc1ccc(SCC(=O)NCCc2ccccc2)cc1 | inconclusive: -3.3%
Cc1ccc(NC(=O)CSc2ccc(-c3ccco3)nn2)c(C)c1 | inactive: -1.3%
CCOC(=O)c1sc(NNC(=O)c2ccc(C)cc2)nc1C | inconclusive: -4.3%
COC(=O)c1sc(C(C)(C)C)cc1CS(=O)(=O)c1ccccn1 | inconclusive: 10.4%
Cc1nc(-c2ccccc2)c(Cc2ccccc2O)c(=O)[nH]1 | inconclusive: 8.1%
Cc1ccccc1OCC(=O)NNC(=O)c1ccc2c(=O)n3c(nc2c1)CCC3 | inconclusive: -146%
NC(N)=N/N=C/c1ccc(Cl)cc1Cl | inconclusive: 1.7%

Individual results from the list:
Cc1ccc(S(=O)(=O)N(CC(=O)NC2CC2)c2ccc(C)c(Cl)c2)cc1 | inhibition: inactive: -4.4%
Cc1ccc(NC(=O)CSc2ccc(-c3ccco3)nn2)c(C)c1 | inhibition: inactive: -1.3%
Cc1cc(-c2n[nH]c(=S)n2/N=C/C=C/c2ccco2)n[nH]1 | inhibition: inconclusive: -15.9%
Fc1ccc(CNc2ncnc3c2cnn3-c2ccccc2)cc1 | inhibition: inconclusive: 9.1%

Later entries.

Structure (SMILES) | inhibition
CC(=O)OCC1OC(n2c(S)c(C#N)c(-c3ccccc3)c(C#N)c2=O)C(OC(C)=O)C(OC(C)=O)C1OC(C)=O (stereo unspecified) | inactive: -4.7%
CC(=O)N1N=C(c2ccc(Br)cc2)OC12CCCC2 | inconclusive: 26.6%
OC(Cn1cncn1)(c1ccc(F)cc1)c1ccc(Cl)cc1 (stereo unspecified) | inconclusive: -20.4%
Cc1cc(C)nc(NC(=O)Cc2ccc(Cl)cc2)c1 | inactive: -13.2%
Cc1cc(C)nc(/N=C(\N)Nc2ccc(OCCC(C)C)cc2)n1 | inconclusive: -1.8%
CCc1ccccc1OCCOc1ccc(C)cc1OC | inconclusive: -10.3%
COc1cc(NC(=O)c2cccc(S(=O)(=O)N3CCCCC3)c2)cc(OC)c1OC | inconclusive: -8%
CSS(=O)(=O)c1cccc2cccnc12 | inconclusive: -10.3%
O=C(COc1ccc(/C=N/NC(=O)c2ccccc2)cc1)Nc1ccc([N+](=O)[O-])cc1 | inconclusive: 27.4%
CCOC(=O)c1c(C)oc2c1c(C=NCC1CCCO1)c(O)c1ccccc12 (stereo unspecified) | inactive: 19.7%
COc1ccc(CC(=O)NCC2CCCN(Cc3ccc(OC(F)(F)F)cc3)C2)cc1 (stereo unspecified) | inconclusive: -24.6%
NNC(=O)c1cc2c(s1)-c1cc(Cl)ccc1SC2 | inconclusive: -46%
COc1ccccc1N1C(=O)C2C(C(=O)c3ccccc3)=NN(c3ccccc3OC)C2C1=O (stereo unspecified) | inconclusive: 78.1%
COc1ccc(-n2c(O)c(C=NCCN(C)C)c(=O)[nH]c2=O)cc1 | inconclusive: 84.9%
COC(=O)c1cc(-c2ccc(S(=O)(=O)N3CCCCC3)cc2)c(C(F)(F)F)s1 | inconclusive: -10.4%
Cc1cccc(NC(=O)c2cc(S(=O)(=O)NCc3ccco3)ccc2F)c1C | inactive: 1.1%
CCN(CC)CCCNC(=O)CCn1nc(-c2ccccc2)ccc1=O | inactive: 3.6%
Cc1c(C)c2ccc(OCC(=O)NC3CCN(Cc4ccccc4)CC3)c(C)c2oc1=O | inactive: 0.4%
COc1ccc(CN2CCN(S(=O)(=O)c3ccc(C)cc3)CC2)cc1OC | inconclusive: -87.1%
CC(=O)NC(Cc1ccccc1)C(=O)NC(Cc1ccccc1)C(=O)O (stereo not drawn) (Ac-Phe-Phe-OH; configuration not given here) | inconclusive: -22.1%
CCN1CCN(S(=O)(=O)c2ccc(OC)c3ccccc23)CC1 | inconclusive: -20.9%
Cc1snc2sc(C(=O)c3ccc(Br)cc3)c(N)c12 | inactive: 7.3%
CCC(=O)NC1CC2CCCC(C1)N2Cc1ccc(C)cc1 (stereo unspecified) | inconclusive: -23.4%

Structure (SMILES) | inhibition
CCCc1c(O)nc(SCCN(CCC)CCC)[nH]c1=O | inconclusive: -19.9%
COc1ccc(CCn2c(O)cc3nn(-c4nc5ccccc5s4)c(=O)c-3c2C)cc1 | inconclusive: -88.4%
C/C(Cn1cnc([N+](=O)[O-])n1)=N\NC(=O)c1cccc(F)c1 | active: 36.4%
O=C(O)CC1(CC(=O)Nc2cc(F)ccc2Cl)CCCCC1 | inconclusive: 70.3%
COc1cc(/C=C/c2nc(-c3ccccc3O)n[nH]2)cc(OC)c1OC | inactive: -13.6%
COc1ccc(OC)c(NC(=O)c2cccc(NC(=O)c3ccccc3C(=O)O)c2)c1 | inconclusive: -7.9%
COCCNC(=O)CN1C(=O)c2cccc3cccc1c23 | inconclusive: -3.7%
CCN(CC)CC#Cc1ccc(C)cc1 | inconclusive: -61.9%
COC(=O)c1cc(S(=O)(=O)Nc2cccc(S(N)(=O)=O)c2)oc1C | inconclusive: 5.3%
Cc1ccc(C(=O)N/C(=C\c2ccc(-c3ccccc3[N+](=O)[O-])o2)C(=O)NCCN(C)C)cc1 | inconclusive: -158%
O=C1CN2CCC1C/C2=C\c1ccnc2c(Cl)cccc12 (stereo unspecified) | inconclusive: 0.5%
O=C(COC(=O)Cc1ccc(F)cc1)NC1CCCCCC1 | inconclusive: -12.5%
Cc1onc(-c2ccccc2)c1C(=O)NNC(=O)c1ccccc1O | inconclusive: 3.4%
O=C(Cn1nc(C(F)(F)F)c2c1CCC2)Nc1ccccc1C(F)(F)F | inactive: -11.3%
CNC(=S)NNC(=O)c1ccc(C(C)(C)C)cc1 | inconclusive: 80%
O=C(O)c1cc(S(=O)(=O)NC2CCCc3ccccc32)ccc1O (stereo unspecified) | active: 49%
Fc1ccccc1Oc1nc(-c2ccncc2)nc2ccccc12 | inconclusive: 11.5%
O=C(N/N=C\C=C\c1ccco1)c1cncc(Br)c1 | inconclusive: -51.1%
CCOc1ccc(NC(=O)CN(C)C(=O)c2ccc3c(c2)S(=O)(=O)N=C2CCCCCN23)cc1OCC | active: 87.4%
CCOc1ccc(CCN2C(=O)c3ccc(C(=O)O)cc3C2=O)cc1OCC | inconclusive: 3.5%
Cc1ccc(C(=O)OCC(=O)c2c[nH]c3ccccc23)cc1NC(=O)c1ccco1 | inactive: 0.7%
CSc1cccc(NC(=O)OC2CCCCCCCCCCC2)c1 | inconclusive: 6.4%
Cc1cc(-c2nnco2)c(C)n1-c1ccccc1 | inconclusive: 6.7%

Structure (SMILES) | inhibition
CCc1cc2c(NC(Cc3ccccc3)C(=O)O)nc(C)nc2s1 (stereo unspecified) | inconclusive: 11.6%
Cc1ccc(OCC(=O)NCCc2nc3ccccc3[nH]2)c(C)c1 | inactive: -1%
Cc1cc(S(=O)(=O)N2CCc3ccccc3C2)ccc1F | inconclusive: 16.3%
CCC(C)(C)n1nnnc1C(c1ccc2ncccc2c1)N1CCCC(C)C1 (stereo unspecified) | inconclusive: -31%
CCCCNC(=O)c1cc2c(=O)n3cccc(C)c3nc2n(Cc2ccccc2)c1=N | inactive: 8.9%
COc1ccc(Cc2nnc(NC(=O)C(C)(C)C)s2)cc1 | inactive: 3.1%
Cc1ccc(CN2CCSc3ccc(C(=O)NCCCN4CCN(C)CC4)cc32)cc1 | inactive: -3.7%
COc1cc(OC)c(NC(=O)N2CCOCC2)cc1Cl | inconclusive: -4%
N#Cc1nc(COc2ccccc2Cl)oc1NCc1ccc(F)cc1 | inactive: -8.1%
COc1cc(Cl)c(C)cc1NC(=O)c1ccc2c(c1)OCO2 | inconclusive: 14.4%
C/C(=N\NC(=O)c1cc(C)oc1C)c1ccc(C)c([N+](=O)[O-])c1 | inactive: -7.4%
COC(=O)c1ccc(NC(=O)COC(=O)C2=NN(c3ccccc3)C(=O)CC2)cc1 | inconclusive: -1.5%
COc1cccc2c(N/N=C/c3ccc(O)c(O)c3)cc(C)nc12 | inconclusive: -28.2%
COc1cc(C(=O)NNC(=O)c2ccccc2Br)ccc1OCC(=O)N1CCOCC1 | inactive: -0.7%
CCOC(=O)c1nnn2c1nc(N1CCN(c3ccccc3)CC1)c1ccccc12 | inconclusive: -6.5%
O=C(N/N=C/c1ccccn1)c1cccc([N+](=O)[O-])c1 | inactive: 1.1%
COc1ccc(N(CC(=O)N2CCCC2)S(C)(=O)=O)cc1 | inconclusive: -10.2%
COCc1[nH]nc2c1C1(CCC3(CC1)OCCO3)C(C#N)=C(N)O2 | inactive: 4.1%
COC(=O)c1ccc(CN2CCCCC2)cc1 | inconclusive: -62%
NNC(=O)c1oc2nc(-c3cccs3)cc(-c3ccco3)c2c1N | inconclusive: -43.4%
CCCCNC(=O)c1cc2cc(OC)ccc2[nH]1 | inconclusive: 41.9%
Cc1c(O)nc(SC2CC(=O)N(c3cc(Cl)cc(Cl)c3)C2=O)[nH]c1=O (stereo unspecified) | inconclusive: 0.2%
